Test results published in PubChem BioAssay AID493014 (National Center for Advancing Translational Sciences (NCATS), 2011).
“And” between values parts separate entries of the source, which are not always exact repeats. Equal entries are not always repeated. The list shows a part of the results. These are further read-outs of the screen, such as a control signal, another cell line or another target. No call is given for them. Compounds called inactive in the main read-out are mostly missing here. Words in brackets tell the shape of the fitted curve; partial curves, single points and poor fits give uncertain potencies.

Assay: qHTS Assay to Find Inhibitors of Chronic Active B-Cell Receptor Signaling
Conditions: ABC-DLBCL IkBa-CBG/CBR reporter, luminescence ratio (green luciferase fused to IkBa over red control in TMD8 lymphoma cells), 4 h
Summary of the method: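 Concentration-response series (up to 46 uM) were applied to TMD8 dual-reporter cells for 4 h at 37C with doxycycline. Green/red ratio, after filter-overlap correction, defined %Activity; red signal alone was normalised to basal cells and zero luminescence.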

[1] = measured here: CBR red luminescence, cell number
[2] = measured here: IkBa-CBG green luminescence

Structure (SMILES)	AC50 [1]	AC50 [2]
CCCn1c(=O)c2ccccc2n2c(SCCOc3ccccc3F)nnc12	32.6 µM [falling, single point]	–
O=C(N/N=C\C=C\c1ccc2c(c1)OCO2)c1ccc(F)cc1	12.6 µM [falling, partial curve, poor fit]	–
CCN1C/C(=C/c2ccc(OC)c(O)c2)C(=O)/C(=C/c2ccc(OC)c(O)c2)C1	35.5 µM [falling, single point]	3.16 µM [falling, single point]
CCN1CCN(Cc2ccc(NC(=O)c3ccc(C)c(NC(=O)C(=O)c4c[nH]c5ccccc45)c3)cc2C(F)(F)F)CC1	5.62 µM [falling, partial curve] and 2.82 µM [falling, full curve]	14.1 µM [rising, partial curve, poor fit]
Cc1ccc(C(=O)CSc2nnc(-c3cccs3)n2C)o1	0.326 µM [rising, partial curve, poor fit]	–
COc1cc(/C=N/NC(=O)c2cccnc2)ccc1OS(=O)(=O)c1cc(C)ccc1C	23.1 µM [falling, single point]	–
CCOC(=O)c1c(-c2ccccc2)oc2ccc(O)c(CN(C)C)c12	16.4 µM [falling, partial curve, poor fit]	–
NC(=O)c1cc([N+](=O)[O-])ccc1NCc1ccc(C(=O)O)cc1	20.6 µM [falling, single point]	–
CC(C)c1csc2nc3n(c(=O)c12)CCCCC3	35.5 µM [rising, single point]	–
Cc1cc(C)nc(N/N=C/C2=C(O)CC(c3ccc(F)cc3)CC2=O)n1 (stereo unspecified)	2.82 µM [rising, partial curve]	–
O=c1[nH]c(/C=C/c2ccccn2)nc2ccccc12	35.5 µM [falling, single point]	–
Cc1cc(C(=O)COc2ccc(Cl)cc2Br)c(C)n1C	0.0891 µM [rising, full curve, poor fit]	–
N#C/C(=C\c1ccncc1)c1ccccn1	7.08 µM [falling, partial curve, poor fit]	–
Cc1ccc2c(C)c(C(=O)N(Cc3ccccc3)C3CCS(=O)(=O)C3)oc2c1 (stereo unspecified)	2.82 µM [rising, single point]	–
O=C1c2cccc3c([N+](=O)[O-])ccc(c23)C(=O)N1c1ccccn1	12.6 µM [rising, partial curve]	–
COC(=O)c1cccc(NC(=O)CSc2nnc(COc3cccc(C)c3)n2C)c1	20 µM [falling, single point]	–
COc1cc(/C=N/NC(=O)NC23CC4CC(CC(C4)C2)C3)ccc1O	–	11.2 µM [falling, partial curve, poor fit]
CN(C)CCNC(=O)c1cccc(S(=O)(=O)Nc2ccc(F)cc2)c1	12.6 µM [falling, partial curve, poor fit]	–
S=c1ccc2ccccc2[nH]1	–	25.1 µM [falling, single point]
O=c1c2ccccc2nnn1COc1cccc(Cl)c1	1.12 µM [falling, full curve, poor fit]	–
O=C(O)C1CCCCN1S(=O)(=O)c1ccccc1 (stereo unspecified)	29.1 µM [rising, single point]	–

19 entries from above, bar-delimited.
Structure (SMILES) | AC50 [1] | AC50 [2]
CCCn1c(=O)c2ccccc2n2c(SCCOc3ccccc3F)nnc12 | 32.6 µM [falling, single point] | –
CCN1C/C(=C/c2ccc(OC)c(O)c2)C(=O)/C(=C/c2ccc(OC)c(O)c2)C1 | 35.5 µM [falling, single point] | 3.16 µM [falling, single point]
CCN1CCN(Cc2ccc(NC(=O)c3ccc(C)c(NC(=O)C(=O)c4c[nH]c5ccccc45)c3)cc2C(F)(F)F)CC1 | 5.62 µM [falling, partial curve] and 2.82 µM [falling, full curve] | 14.1 µM [rising, partial curve, poor fit]
Cc1ccc(C(=O)CSc2nnc(-c3cccs3)n2C)o1 | 0.326 µM [rising, partial curve, poor fit] | –
COc1cc(/C=N/NC(=O)c2cccnc2)ccc1OS(=O)(=O)c1cc(C)ccc1C | 23.1 µM [falling, single point] | –
CCOC(=O)c1c(-c2ccccc2)oc2ccc(O)c(CN(C)C)c12 | 16.4 µM [falling, partial curve, poor fit] | –
NC(=O)c1cc([N+](=O)[O-])ccc1NCc1ccc(C(=O)O)cc1 | 20.6 µM [falling, single point] | –
CC(C)c1csc2nc3n(c(=O)c12)CCCCC3 | 35.5 µM [rising, single point] | –
Cc1cc(C)nc(N/N=C/C2=C(O)CC(c3ccc(F)cc3)CC2=O)n1 (stereo unspecified) | 2.82 µM [rising, partial curve] | –
O=c1[nH]c(/C=C/c2ccccn2)nc2ccccc12 | 35.5 µM [falling, single point] | –
Cc1cc(C(=O)COc2ccc(Cl)cc2Br)c(C)n1C | 0.0891 µM [rising, full curve, poor fit] | –
N#C/C(=C\c1ccncc1)c1ccccn1 | 7.08 µM [falling, partial curve, poor fit] | –
Cc1ccc2c(C)c(C(=O)N(Cc3ccccc3)C3CCS(=O)(=O)C3)oc2c1 (stereo unspecified) | 2.82 µM [rising, single point] | –
O=C1c2cccc3c([N+](=O)[O-])ccc(c23)C(=O)N1c1ccccn1 | 12.6 µM [rising, partial curve] | –
COC(=O)c1cccc(NC(=O)CSc2nnc(COc3cccc(C)c3)n2C)c1 | 20 µM [falling, single point] | –
COc1cc(/C=N/NC(=O)NC23CC4CC(CC(C4)C2)C3)ccc1O | – | 11.2 µM [falling, partial curve, poor fit]
S=c1ccc2ccccc2[nH]1 | – | 25.1 µM [falling, single point]
O=c1c2ccccc2nnn1COc1cccc(Cl)c1 | 1.12 µM [falling, full curve, poor fit] | –
O=C(O)C1CCCCN1S(=O)(=O)c1ccccc1 (stereo unspecified) | 29.1 µM [rising, single point] | –

Continued:

Structure (SMILES)	AC50 [1]	AC50 [2]
NC(=O)c1cc(-c2ccccc2)nc(N2CCOCC2)n1	8.2 µM [falling, partial curve]	–
O=C(NC(=O)c1ccccc1)Nc1ccccc1	3.55 µM [falling, full curve, poor fit]	–
COc1ccc2cc(/C=N/NC(=O)CN(c3ccccc3)S(=O)(=O)c3ccccc3)c(Cl)nc2c1	25.9 µM [rising, partial curve, poor fit]	–
CCCNC(=O)Nc1nnc(C2CC2)s1	6.31 µM [rising, partial curve, poor fit]	–
COc1ccc(/C(C#N)=C/c2ccccn2)cc1	35.5 µM [falling, single point]	–
O=C(NC(NC(=S)Nc1cc(Cl)ccc1Cl)C(Cl)(Cl)Cl)c1ccco1 (stereo unspecified)	17.8 µM [falling, partial curve, poor fit]	–
CNC(=O)c1ccc(NC(=O)c2ccc3c(=O)n4c(nc3c2)CCC4)cc1	10.3 µM [falling, partial curve, poor fit]	–
CCOC(=O)c1ccc(N/C=C/C(=O)c2ccccc2)cc1	25.1 µM [falling, single point]	–
NNc1nc(NCc2ccccc2)nc(N2CCOCC2)n1	18.4 µM [falling, single point]	–
Cc1ccccc1Cn1c(=N)n(CC(=O)c2ccco2)c2ccccc21	3.98 µM [falling, partial curve, poor fit]	–
COc1ccc(OC)c2sc(NC(=O)c3ccc(S(=O)(=O)N4CCOCC4)cc3)nc12	9.2 µM [falling, partial curve, poor fit]	–
CCC(=O)N1CCC(c2ccc(OC)cc2)=N1	2.31 µM [rising, full curve]	–
CCOC(=O)COc1ccc(S(=O)(=O)NCCC2=CCCCC2)cc1	29.1 µM [falling, partial curve, poor fit]	–
O=C(CCn1c(=S)[nH]c2ccccc2c1=O)Nc1cccc(Cl)c1	0.708 µM [rising, full curve, poor fit]	–
CCc1nc2ccc(C(=O)NCc3ccc(OC)c(OC)c3)cc2nc1CC	12.6 µM [falling, partial curve, poor fit]	–
N#CCC(=O)Nc1ccc(C(=O)OCC(=O)NCc2ccc3c(c2)OCO3)cc1	13 µM [falling, single point]	–
CC1(C)Cc2c(c(N3CCOCC3)nc3sc(C(=O)Nc4ccc(Cl)cc4)c(N)c23)CO1	20 µM [falling, partial curve, poor fit]	–
CCN1CCN(c2ccc(S(=O)(=O)N3CCOCC3)cc2NC(=O)c2ccccc2SC)CC1	1.64 µM [rising, partial curve]	–
CCCn1c(N)c(N(CCOC)C(=O)c2ccc(N(C)S(=O)(=O)c3ccc(C)cc3)cc2)c(=O)[nH]c1=O	0.013 µM [falling, full curve, poor fit]	–
CCCCC(=O)N1CCCC(c2nc(-c3cccc(OC)c3)no2)C1 (stereo unspecified)	1.41 µM [rising, partial curve, poor fit]	–
OCC1OC(n2cnc3c(NC4CCCCC4)ncnc32)C(O)C1O (stereo unspecified)	–	2.51 µM [falling, partial curve]

Structure (SMILES)	AC50 [1]	AC50 [2]
CCN(CC(=O)Nc1ccc(NC(C)=O)cc1)CC(=O)Nc1cccc(Cl)c1	22.4 µM [falling, single point]	–
CC(=O)OC1COC(N2CCc3cc(Br)c([N+](=O)[O-])cc32)C(OC(C)=O)C1OC(C)=O (stereo unspecified)	6.51 µM [falling, single point]	–
COC(=O)CNC(=O)c1cccc(-c2ccc(OC)cc2)c1	28.2 µM [falling, single point]	–
CCCC1=NN(c2ccc([N+](=O)[O-])cc2)C(=O)/C1=C/N(C)C	29.1 µM [falling, single point]	–
CCCn1c(-c2ccc(OC)cc2)nc2c(=O)n(C)c(=O)[nH]c21	23.1 µM [rising, single point]	–
CC1(O)CC(=O)N(c2ccccc2)O1 (stereo unspecified)	35.5 µM [falling, single point]	–
COc1ccc(OCCCCN2CCC(C)CC2)cc1	4.47 µM [rising, partial curve, poor fit]	3.55 µM [falling, single point]
COc1ccccc1NC1=C(Cl)C(=O)N(c2ccccc2)C1=O	11.6 µM [falling, partial curve]	–
Cc1ccccc1C(=O)NCC(=O)Nc1ccc(C)c(S(=O)(=O)N2CCCCCC2)c1	22.4 µM [falling, single point]	–
Cc1ccc(C)c(NC(=O)c2ccc(OC(=O)c3ccco3)cc2)c1	14.6 µM [falling, partial curve, poor fit]	–
Cc1[nH]c2ccccc2c1C(=O)COC(=O)c1c(-c2ccccc2)noc1C	29.1 µM [falling, single point]	29.1 µM [rising, partial curve, poor fit]
CC(=O)Nc1ccc(C(=O)N(C2=NC(C)CS2)c2ccc(Cl)cc2)cc1 (stereo unspecified)	6.31 µM [rising, single point]	–
Cc1c(C)c(C)c(C(=O)c2ccc(NC(=O)c3ccccc3C(=O)O)cc2)c(C)c1C	8.91 µM [rising, partial curve, poor fit]	–
O=C(CSc1n[nH]c(-c2cccs2)n1)N1CCCCC1	8.2 µM [falling, partial curve, poor fit]	–
Cc1ccc(OCC(=O)Nc2cccc(O)c2)cc1C	3.98 µM [falling, full curve, poor fit]	–
CCN(CC)S(=O)(=O)c1ccc(C(=O)NCc2ccc3c(c2)cc(C)n3C)cc1	23.1 µM [rising, single point]	–
CCc1ccccc1NC(=O)C1=CC(c2cccs2)=NS(=O)(=O)N1C	2.82 µM [rising, single point]	–
CCc1nc2oc3ccccc3c(=O)c2c(=O)n1-c1ccc(C)cc1	2 µM [falling, full curve]	–
Oc1ccccc1/C=N/NC(=S)NC1CC2C=CC1C2 (stereo unspecified)	0.794 µM [falling, full curve]	–
Cc1ccc(NC(=O)c2cc(-c3cccs3)nc3ccccc23)nc1	11.2 µM [falling, single point]	–
